This note sets out measurements from PMC7819943, “Rice protein-binding microarrays: a tool to detect cis-acting elements near promoter regions in rice”.

Sequences of proteins named here, by UniProt entry; tags and fusion partners are left off.
UniProt Q0JBA9, entry or part of it: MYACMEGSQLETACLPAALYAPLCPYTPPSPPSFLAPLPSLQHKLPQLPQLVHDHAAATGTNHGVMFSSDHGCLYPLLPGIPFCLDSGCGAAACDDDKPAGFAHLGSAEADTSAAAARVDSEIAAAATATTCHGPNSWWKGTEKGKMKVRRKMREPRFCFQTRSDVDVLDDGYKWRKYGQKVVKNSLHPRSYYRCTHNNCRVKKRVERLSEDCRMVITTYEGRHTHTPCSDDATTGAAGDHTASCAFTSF

The other results are listed elsewhere or left out.

The test concerns the target OsWRKY34 (Oryza sativa, UniProt Q0JBA9 1-250). Put plainly: protein-binding microarray (RPBM); PBS, 2% BSA, 51.3 ng/ul salmon testes DNA, 50 uM zinc acetate, 200 nM TF, 25 C, 1 h; high values mean tight binding. Conditions: protein: recombinant; tags: N-terminal polyhistidine and DsRed monomer fusion (pET32a); label: CyDye5-dUTP incorporated in the synthesized complementary strand; 3' TTTTT single-stranded linker to array surface; dsDNA, one strand shown. In outline: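 Polyhistidine-tagged DsRed fusions of transcription factors, joined at the N-terminus, were expressed in E. coli BL21-CodonPlus and isolated on Ni–NTA. They were incubated at 200 nM for 1 h at 25 °C on a custom Agilent array, double-stranded and BSA-blocked, in PBS with 2% BSA, salmon testes DNA and 50 µM zinc acetate. The binding signal is per-feature fluorescence intensity (arbitrary units) read on an Axon 4000B scanner after washing.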
Turning to “CCCACTGACACGTGTGTCCCACTTTTTTTTAGCTTTTTATCGGAGTCACCTAGTGCAG”, the binding signal is 8250 fluorescence intensity (a.u.). With “TATTCTTGGGTTCTTAGTTCTTGCTGAACTGCATATGTCACGGAGTCACCTAGTGCAG”, the binding signal was 9650 fluorescence intensity (a.u.). With “GTCCACGCTCTAGGAAATCCACCGCACCGCCTTCGCACCACGGAGTCACCTAGTGCAG”, the binding signal is 8900 fluorescence intensity (a.u.).

In the case of “ACACCCCACTCCTCACCCTCACGCAAAGTTCCCACACAACCGGAGTCACCTAGTGCAG”, the binding signal was 8250 fluorescence intensity (a.u.).

For “TCCTCTCTCTCTCTCTCTCTCTCTCCTCCTTTGGAGTTGTCGGAGTCACCTAGTGCAG”, the binding signal is 10500 fluorescence intensity (a.u.). With “GCGTTTATCATTCTGTTTGTTTTTATAACAAAGCTGCTATCGGAGTCACCTAGTGCAG” the figure was 9330 fluorescence intensity (a.u.). As for “ATTCTCTTCTTCATCTAGACTTAAATTTATTGCATGATGTCGGAGTCACCTAGTGCAG”, the binding signal was 8420 fluorescence intensity (a.u.). For “CTCTTCCTTTCCTTGCTTCAGCTTCTTCTACTTATTAATCCGGAGTCACCTAGTGCAG”, the binding signal was 9180 fluorescence intensity (a.u.). Take “GTTGGTAATGGTCACTCTATTCCGGTTGTTTGCCGTGGCACGGAGTCACCTAGTGCAG”: the binding signal is 8040 fluorescence intensity (a.u.). Turning to “GGTTGATTTGGTTCTTAGCCAGGTATTTTTGCAGGTGTCGCGGAGTCACCTAGTGCAG”, the binding signal is 11100 fluorescence intensity (a.u.). “CCTCAAAATTTCGAAAATTGCGCCCGTCTTCCTTCCCTTCCGGAGTCACCTAGTGCAG”: the binding signal is 8450 fluorescence intensity (a.u.).

On to “GCTCGCGCTCCACCCAACGGCCCAGGAACCAGCCCACGCACGGAGTCACCTAGTGCAG”, for which the binding signal was 9300 fluorescence intensity (a.u.).

Regarding “AATTTGGTTTATTTTTTGTTCCACCGAAAAATGTTTCACCCGGAGTCACCTAGTGCAG”, the binding signal is 9170 fluorescence intensity (a.u.).

With “AGTCCAAGCAGCCCACGAAGTACCCGGCATTTATTTTCCTCGGAGTCACCTAGTGCAG”, the binding signal was 9300 fluorescence intensity (a.u.).

In the case of “GTCTAAAAGATCAGTTCAAGTCGTGTTACCATGTGTTTTGCGGAGTCACCTAGTGCAG”, the binding signal is 9970 fluorescence intensity (a.u.).

Take “CTCCTCTTTTCCTCCTGGTCTTCGTCTTCCTCAAGCCATGCGGAGTCACCTAGTGCAG”: the binding signal is 8050 fluorescence intensity (a.u.).

As to “CGTTGTCTTGTGCTCGCTTGCTTCCGTTTGACGCGGTAGCCGGAGTCACCTAGTGCAG”, the binding signal is 8840 fluorescence intensity (a.u.). Take “GTGGCTGTGATTGTGTGATTGTGTACCTGTTTGTAGTGAACGGAGTCACCTAGTGCAG”: the binding signal was 12700 fluorescence intensity (a.u.). Turning to “ATCAGTCAAAATTCCAAAAGTTGGTCTTGTCCTTCATGTCCGGAGTCACCTAGTGCAG”, the binding signal is 8160 fluorescence intensity (a.u.).

Turning to “AGTTGATCTGCACCGGTTTTCAAAGTTTGGGAATGTGTTACGGAGTCACCTAGTGCAG”, the binding signal is 8850 fluorescence intensity (a.u.). Consider “GGTCAATTTAGGGCACACACCAAACCAGCCCTTACAACTTCGGAGTCACCTAGTGCAG”, for which the binding signal is 8620 fluorescence intensity (a.u.). As to “GCATGCACAGTCACACACCCACACCCAAACAGAACAAAAACGGAGTCACCTAGTGCAG”, the binding signal was 8640 fluorescence intensity (a.u.). On to “CTAAATCTTAGCAGGACCCACCACATACCATGTTTTATACCGGAGTCACCTAGTGCAG”, for which the binding signal was 8660 fluorescence intensity (a.u.).

“GGTGCTTTTGGTCAGTGGGAGATAGATATGGTTGCTATGTCGGAGTCACCTAGTGCAG”: the binding signal is 8120 fluorescence intensity (a.u.). As for “TCCTCCTTTCTCGCTCTCGCTCTGTCCGATCGGAGCCATGCGGAGTCACCTAGTGCAG”, the binding signal was 8490 fluorescence intensity (a.u.). For “CATACTGATGCATCCTTTTTTGTGTCCACCTTTTGTTTTTCGGAGTCACCTAGTGCAG”, the binding signal is 8130 fluorescence intensity (a.u.).

As to “GTATCTGTTGGAGGTCCATTTTCATCTCGCATATGCCATACGGAGTCACCTAGTGCAG”, the binding signal was 12000 fluorescence intensity (a.u.). As for “GCGATTATGTGGTCTGTTATCAAAATTATGGCAAATTGTTCGGAGTCACCTAGTGCAG”, the binding signal was 9250 fluorescence intensity (a.u.).

Consider “TCTCGTCTTCCGCCCACTGTGTCCGGGCCCCACCATCCCTCGGAGTCACCTAGTGCAG”, for which the binding signal is 8140 fluorescence intensity (a.u.). In the case of “TACGAATTGTCAGGTAAATATTTCAGTCTGGTCTTTTCTCCGGAGTCACCTAGTGCAG”, the binding signal is 9070 fluorescence intensity (a.u.).

Turning to “CGTTTTCTTTCTTGTTTTCAGGCACCAAATCTCTGCTGTTCGGAGTCACCTAGTGCAG”, the binding signal was 11200 fluorescence intensity (a.u.). Take “CCACGACACCGCTTCCAGCCCACGCAACCCTCGAACAATGCGGAGTCACCTAGTGCAG”: the binding signal was 8170 fluorescence intensity (a.u.). With “TAGACTATTATCCTTTTAGACCTTTTGTTTGTAGCTAATTCGGAGTCACCTAGTGCAG” the figure was 8750 fluorescence intensity (a.u.).

In the case of “TGGGAGTGTTGTTATTCTCGTGCGCGTTGTGGTTAGTGGGCGGAGTCACCTAGTGCAG”, the binding signal was 9630 fluorescence intensity (a.u.).

For “TAGTGCATTATCCGTTCGTATCCGCTCCGTTTTCATCTCCCGGAGTCACCTAGTGCAG”, the binding signal is 13300 fluorescence intensity (a.u.). Turning to “GAATATCTGAACTTTCCCCGTTCTATTGTCCATGCATACGCGGAGTCACCTAGTGCAG”, the binding signal is 8070 fluorescence intensity (a.u.). Regarding “TCGACTCCTAACTGCAGCTCATGATTTTCTATATATATATCGGAGTCACCTAGTGCAG”, the binding signal is 11400 fluorescence intensity (a.u.). For “GTCTCATCTTCCTCAGGGTTCACAATTCCGATGAAAATCGCGGAGTCACCTAGTGCAG”, the binding signal is 8430 fluorescence intensity (a.u.). With “CCCACCACACCAGTAACCATAATTAACCTCTTCCTCACTGCGGAGTCACCTAGTGCAG” the figure was 8300 fluorescence intensity (a.u.); with “GAATCCATTAGCTTATACTCTCTCCATCTATTTTTGATAACGGAGTCACCTAGTGCAG”, 9190 fluorescence intensity (a.u.); with “CCGCCACCGCCACCTCGCTGTCGTGGCTACCTCAGCCGTCCGGAGTCACCTAGTGCAG”, 9190 fluorescence intensity (a.u.). In the case of “GGCTGGAACGTCGAAATCCTCCGCCTCGCCGCGTGCCTCTCGGAGTCACCTAGTGCAG”, the binding signal was 10800 fluorescence intensity (a.u.).
